PubChem BioAssay AID1508597 | Cure First – 2020

Screen: 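Knock-downs altering ovarian cancer cell survival with or without PARP inhibitor rucaparib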 (primary screen)
Cell system: human ovarian carcinoma lines grown from tumours: OCI-P5x (papillary serous) and OCI-C5x (clear cell)
Reagents: siRNA pool against human genes, 1.25 pmol siRNA per well
Duration: 72 h or 96 h, depending on the cell culture
Challenge: rucaparib 20 µM (about IC30) or vehicle, present until read-out
Rucaparib or vehicle: Rucaparib
Cell line: OCI-P5x (serous)
Read-out: 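Luminescent ATP-based viability assay read 72 or 96 h after transfection, depending on culture, given as normalised percent viability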
Reading the numbers: viability, normalised: higher = more viable cells remaining
Rule for the call: 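a well counts as a hit if its normalised viability is under 80 percent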
Calls: active = viability under 80%; inactive = viability 80% or more
Shown is an unselected part of the about 2,100 reagents, in one setting of the screen. 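Calls flag viability under 80% in either arm, not effects specific to rucaparib; the reference for percent is not stated.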 Unmarked entries are inactive. A reagent listed more than once was tested more than once; the source does not tell the runs apart. The record does not give: the 100% reference.

no.	gene knocked down	technical replicate	viability, normalised (%)
1	TLK2 (tousled like kinase 2)	1	62.3 (active)
2	TLK2 (tousled like kinase 2)	1	103
3	TLK2 (tousled like kinase 2)	2	85
4	TLK2 (tousled like kinase 2)	2	48.5 (active)
5	TLK2 (tousled like kinase 2)	3	54 (active)
6	TLK2 (tousled like kinase 2)	3	78.2 (active)
7	GDPD2 (glycerophosphodiester phosphodiesterase domain containing 2)	1	67.1 (active)
8	GDPD2 (glycerophosphodiester phosphodiesterase domain containing 2)	2	76.4 (active)
9	GDPD2 (glycerophosphodiester phosphodiesterase domain containing 2)	3	54.8 (active)
10	TAF5 (TATA-box binding protein associated factor 5)	1	53.4 (active)
11	TAF5 (TATA-box binding protein associated factor 5)	2	63.7 (active)
12	TAF5 (TATA-box binding protein associated factor 5)	3	52.8 (active)
13	TP73 (tumor protein p73)	1	63.8 (active)
14	TP73 (tumor protein p73)	2	58.1 (active)
15	TP73 (tumor protein p73)	3	55.8 (active)
16	CREBBP (CREB binding lysine acetyltransferase)	1	54.1 (active)
17	CREBBP (CREB binding lysine acetyltransferase)	2	68.7 (active)
18	CREBBP (CREB binding lysine acetyltransferase)	3	66.2 (active)
19	ELOA3P (elongin A3, pseudogene)	1	102
20	ELOA3P (elongin A3, pseudogene)	2	76.4 (active)
21	ELOA3P (elongin A3, pseudogene)	3	78.8 (active)

4 neighbouring entries from above:
no.	gene knocked down	technical replicate	viability, normalised (%)
1	TLK2 (tousled like kinase 2)	1	62.3 (active)
2	TLK2 (tousled like kinase 2)	1	103
3	TLK2 (tousled like kinase 2)	2	85
4	TLK2 (tousled like kinase 2)	2	48.5 (active)

Continued:
no.	gene knocked down	technical replicate	viability, normalised (%)
22	ARFGEF2 (ARF guanine nucleotide exchange factor 2)	1	64.9 (active)
23	ARFGEF2 (ARF guanine nucleotide exchange factor 2)	2	51.7 (active)
24	ARFGEF2 (ARF guanine nucleotide exchange factor 2)	3	52.5 (active)
25	ASXL1 (ASXL transcriptional regulator 1)	1	90.3
26	ASXL1 (ASXL transcriptional regulator 1)	2	94.6
27	ASXL1 (ASXL transcriptional regulator 1)	3	73 (active)
28	JAK3 (Janus kinase 3)	1	130
29	JAK3 (Janus kinase 3)	2	142
30	JAK3 (Janus kinase 3)	3	106
31	TARBP2 (TARBP2 subunit of RISC loading complex)	1	58.8 (active)
32	TARBP2 (TARBP2 subunit of RISC loading complex)	2	54.9 (active)
33	TARBP2 (TARBP2 subunit of RISC loading complex)	3	52.3 (active)
34	PDE9A (phosphodiesterase 9A)	1	69.6 (active)
35	PDE9A (phosphodiesterase 9A)	2	38 (active)
36	PDE9A (phosphodiesterase 9A)	3	60.3 (active)
37	EDC4 (enhancer of mRNA decapping 4)	1	68.1 (active)
38	EDC4 (enhancer of mRNA decapping 4)	2	76.1 (active)
39	EDC4 (enhancer of mRNA decapping 4)	3	83.8
